# From paper PMC5833739
# Sequences of proteins named here, by UniProt entry; tags and fusion partners are left off.
# UniProt Q14790: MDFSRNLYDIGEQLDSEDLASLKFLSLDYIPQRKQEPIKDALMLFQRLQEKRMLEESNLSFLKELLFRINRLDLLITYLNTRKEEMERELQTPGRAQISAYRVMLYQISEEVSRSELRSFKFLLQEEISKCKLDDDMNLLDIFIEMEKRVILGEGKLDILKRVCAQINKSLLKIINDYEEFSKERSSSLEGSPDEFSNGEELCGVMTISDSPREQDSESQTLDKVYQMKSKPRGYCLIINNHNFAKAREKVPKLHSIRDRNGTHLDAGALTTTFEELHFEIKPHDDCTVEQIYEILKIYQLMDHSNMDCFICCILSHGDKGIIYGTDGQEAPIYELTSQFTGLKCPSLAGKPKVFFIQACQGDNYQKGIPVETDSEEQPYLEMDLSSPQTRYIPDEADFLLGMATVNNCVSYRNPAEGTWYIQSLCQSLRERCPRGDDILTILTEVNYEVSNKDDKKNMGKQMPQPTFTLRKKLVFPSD
# Like-named read-outs stand apart in the source and are kept apart here. No constants are given. Whether binding was seen depends on the method and setting. Binding seen in cells or lysates may run through a third protein. Some results given as binding are weak or reduced against the parent protein; the word gives no strength. For part of these data: Tags and fused reporters may be left off the sequences shown.
# T1: RFXANK-myc-FLAG (human) (UniProt O14593)
# T1 sequence: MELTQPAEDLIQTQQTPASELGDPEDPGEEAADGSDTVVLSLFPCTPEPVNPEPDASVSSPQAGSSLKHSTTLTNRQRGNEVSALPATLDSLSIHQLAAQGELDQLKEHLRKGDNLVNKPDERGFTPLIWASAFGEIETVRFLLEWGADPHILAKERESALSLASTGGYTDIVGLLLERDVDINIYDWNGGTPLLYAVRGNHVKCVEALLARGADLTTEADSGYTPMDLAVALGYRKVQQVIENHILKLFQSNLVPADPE
# T2: endogenous RFXANK (OCI-AML2) (human (endogenous in OCI-AML2)) (UniProt O14593)
# T2 sequence: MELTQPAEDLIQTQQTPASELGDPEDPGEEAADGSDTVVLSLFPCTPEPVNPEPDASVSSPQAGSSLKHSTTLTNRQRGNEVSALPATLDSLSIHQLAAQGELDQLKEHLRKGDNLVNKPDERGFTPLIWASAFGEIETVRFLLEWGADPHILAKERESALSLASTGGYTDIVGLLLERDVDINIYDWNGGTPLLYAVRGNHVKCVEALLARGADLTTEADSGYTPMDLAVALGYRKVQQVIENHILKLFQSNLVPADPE
# Legend:
# [1] = molecular target: T1, RFXANK-myc-FLAG (human); test: co-IP; HEK293T lysates after transfection; capture on anti-RFXANK-coated Dynabeads Protein G overnight at 4 °C; lysis buffer 30 mM Tris-HCl pH 7.5, 120 mM NaCl, 1% glycerol, 0.5% NP-40; Western blot
# [2] = molecular target: T1, RFXANK-myc-FLAG (human); test: as above; remark: listed apart in the source
# [3] = molecular target: T2, endogenous RFXANK (OCI-AML2) (human (endogenous in OCI-AML2)); test: co-IP; endogenous proteins of OCI-AML2 cells fractionated with 0.01% digitonin (cytosolic and nuclear fractions); capture with anti-RFXANK antibody; Western blot
molecule,measurement,setting,value
caspase-8 (HEK293T) (from UniProt Q14790 1-479) (enzyme),binding,[1],no binding
"endogenous full-length caspase-2 (HEK293T) (enzyme, UniProt P42575 1-452) MAAPSAGSWSTFQHKELMAADRGRRILGVCGMHPHHQETLKKNRVVLAKQLLLSELLEHLLEKDIITLEMRELIQAKVGSFSQNVELLNLLPKRGPQAFDAFCEALRETKQGHLEDMLLTTLSGLQHVLPPLSCDYDLSLPFPVCESCPLYKKLRLSTDTVEHSLDNKDGPVCLQVKPCTPEFYQTHFQLAYRLQSRPRGLALVLSNVHFTGEKELEFRSGGDVDHSTLVTLFKLLGYDVHVLCDQTAQEMQEKLQNFAQLPAHRVTDSCIVALLSHGVEGAIYGVDGKLLQLQEVFQLFDNANCPSLQNKPKMFFIQACRGDETDRGVDQQDGKNHAGSPGCEESDAGKEKLPKMRLPTRSDMICGYACLKGTAAMRNTKRGSWYIEALAQVFSERACDMHVADMLVKVNALIKDREGYAPGTEFHRCKEMSEYCSTLCRHLYLFPGHPPT",binding,[2],binds weakly
"endogenous caspase-2 (OCI-AML2) (enzyme, UniProt P42575 1-452) MAAPSAGSWSTFQHKELMAADRGRRILGVCGMHPHHQETLKKNRVVLAKQLLLSELLEHLLEKDIITLEMRELIQAKVGSFSQNVELLNLLPKRGPQAFDAFCEALRETKQGHLEDMLLTTLSGLQHVLPPLSCDYDLSLPFPVCESCPLYKKLRLSTDTVEHSLDNKDGPVCLQVKPCTPEFYQTHFQLAYRLQSRPRGLALVLSNVHFTGEKELEFRSGGDVDHSTLVTLFKLLGYDVHVLCDQTAQEMQEKLQNFAQLPAHRVTDSCIVALLSHGVEGAIYGVDGKLLQLQEVFQLFDNANCPSLQNKPKMFFIQACRGDETDRGVDQQDGKNHAGSPGCEESDAGKEKLPKMRLPTRSDMICGYACLKGTAAMRNTKRGSWYIEALAQVFSERACDMHVADMLVKVNALIKDREGYAPGTEFHRCKEMSEYCSTLCRHLYLFPGHPPT",binding,[3],binds
